In publication PMC10717141:
Results are given in words; binding and its absence hold for the method and conditions named. In cells and extracts the contact can be indirect. Some entries that bind do so weakly or less than the wild type.

Biological target: T1, eIF4G2 (human (endogenous in SW620 and LoVo)) (UniProt P78344)
T1 sequence: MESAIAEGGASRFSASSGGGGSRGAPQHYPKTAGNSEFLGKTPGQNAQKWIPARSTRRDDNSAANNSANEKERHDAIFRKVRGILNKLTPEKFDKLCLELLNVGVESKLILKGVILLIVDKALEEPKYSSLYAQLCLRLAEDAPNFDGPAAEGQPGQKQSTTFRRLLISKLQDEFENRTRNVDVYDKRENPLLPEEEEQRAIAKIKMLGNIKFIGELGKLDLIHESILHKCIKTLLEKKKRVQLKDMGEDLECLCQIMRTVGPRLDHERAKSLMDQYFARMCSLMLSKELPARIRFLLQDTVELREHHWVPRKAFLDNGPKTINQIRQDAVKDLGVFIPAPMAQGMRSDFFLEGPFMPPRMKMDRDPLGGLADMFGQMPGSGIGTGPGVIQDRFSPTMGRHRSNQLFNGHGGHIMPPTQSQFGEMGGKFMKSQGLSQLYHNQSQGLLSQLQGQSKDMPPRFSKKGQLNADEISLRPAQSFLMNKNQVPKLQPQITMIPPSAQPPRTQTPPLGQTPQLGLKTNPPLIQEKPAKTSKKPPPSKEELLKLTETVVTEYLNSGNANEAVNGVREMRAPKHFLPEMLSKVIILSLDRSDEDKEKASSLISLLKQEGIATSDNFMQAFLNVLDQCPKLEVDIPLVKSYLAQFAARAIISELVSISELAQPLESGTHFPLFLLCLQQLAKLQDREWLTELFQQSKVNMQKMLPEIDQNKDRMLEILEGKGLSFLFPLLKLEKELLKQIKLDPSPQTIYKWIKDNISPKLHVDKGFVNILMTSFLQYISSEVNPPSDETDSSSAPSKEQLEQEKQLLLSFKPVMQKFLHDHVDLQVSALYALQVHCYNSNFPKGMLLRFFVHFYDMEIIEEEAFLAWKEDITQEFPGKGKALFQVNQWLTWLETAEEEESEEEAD
Assay: co-IP; endogenous proteins in SW620 and LoVo lysates (RIPA buffer), primary antibody 4 °C 3 h, protein A/G agarose, western blot

binding: binds
B1: YTHDF3 (protein, UniProt Q7Z739 1-585)
chain: MSATSVDQRPKGQGNKVSVQNGSIHQKDAVNDDDFEPYLSSQTNQSNSYPPMSDPYMPSYYAPSIGFPYSLGEAAWSTAGDQPMPYLTTYGQMSNGEHHYIPDGVFSQPGALGNTPPFLGQHGFNFFPGNADFSTWGTSGSQGQSTQSSAYSSSYGYPPSSLGRAITDGQAGFGNDTLSKVPGISSIEQGMTGLKIGGDLTAAVTKTVGTALSSSGMTSIATNSVPPVSSAAPKPTSWAAIARKPAKPQPKLKPKGNVGIGGSAVPPPPIKHNMNIGTWDEKGSVVKAPPTQPVLPPQTIIQQPQPLIQPPPLVQSQLPQQQPQPPQPQQQQGPQPQAQPHQVQPQQQQLQNRWVAPRNRGAGFNQNNGAGSENFGLGVVPVSASPSSVEVHPVLEKLKAINNYNPKDFDWNLKNGRVFIIKSYSEDDIHRSIKYSIWCSTEHGNKRLDAAYRSLNGKGPLYLLFSVNGSGHFCGVAEMKSVVDYNAYAGVWSQDKWKGKFEVKWIFVKDVPNNQLRHIRLENNDNKPVTNSRDTQEVPLEKAKQVLKIIATFKHTTSIFDDFAHYEKRQEEEEAMRRERNRNKQ
